Test results taken from paper PMC7815755.
These are yes or no findings as the source states them, for the method shown.

Columns and labels:
[1] = target: T1, mouse GBP5 (guanylate-binding protein 5) (mouse) (UniProt Q8CFB4); test: native gel or EMSA; native PAGE, PhastSystem, 8-25% gradient gels, Coomassie; proteins mixed in the absence and presence of GTP and MgCl2, 1 h at 4 °C; both purified
T1 sequence: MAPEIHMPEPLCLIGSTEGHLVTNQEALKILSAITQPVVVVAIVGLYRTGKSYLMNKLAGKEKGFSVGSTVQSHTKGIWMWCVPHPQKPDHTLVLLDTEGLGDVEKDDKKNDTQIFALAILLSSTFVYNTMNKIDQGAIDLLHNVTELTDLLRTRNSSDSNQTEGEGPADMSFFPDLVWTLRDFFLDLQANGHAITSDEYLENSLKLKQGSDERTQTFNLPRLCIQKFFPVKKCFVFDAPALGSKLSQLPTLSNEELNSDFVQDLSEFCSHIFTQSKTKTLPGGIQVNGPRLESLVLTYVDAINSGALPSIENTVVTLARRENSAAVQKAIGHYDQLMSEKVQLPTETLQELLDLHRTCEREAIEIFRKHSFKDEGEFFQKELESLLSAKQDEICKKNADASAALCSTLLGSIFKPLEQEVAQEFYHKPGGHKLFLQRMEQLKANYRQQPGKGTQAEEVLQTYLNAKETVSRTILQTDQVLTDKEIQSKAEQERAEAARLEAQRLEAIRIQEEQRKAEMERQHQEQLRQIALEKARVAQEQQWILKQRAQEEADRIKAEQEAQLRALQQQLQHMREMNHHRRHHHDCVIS

[2] = target: T2, GBP2 (guanylate-binding protein 2) (UniProt Q9Z0E6); test: as above
T2 sequence: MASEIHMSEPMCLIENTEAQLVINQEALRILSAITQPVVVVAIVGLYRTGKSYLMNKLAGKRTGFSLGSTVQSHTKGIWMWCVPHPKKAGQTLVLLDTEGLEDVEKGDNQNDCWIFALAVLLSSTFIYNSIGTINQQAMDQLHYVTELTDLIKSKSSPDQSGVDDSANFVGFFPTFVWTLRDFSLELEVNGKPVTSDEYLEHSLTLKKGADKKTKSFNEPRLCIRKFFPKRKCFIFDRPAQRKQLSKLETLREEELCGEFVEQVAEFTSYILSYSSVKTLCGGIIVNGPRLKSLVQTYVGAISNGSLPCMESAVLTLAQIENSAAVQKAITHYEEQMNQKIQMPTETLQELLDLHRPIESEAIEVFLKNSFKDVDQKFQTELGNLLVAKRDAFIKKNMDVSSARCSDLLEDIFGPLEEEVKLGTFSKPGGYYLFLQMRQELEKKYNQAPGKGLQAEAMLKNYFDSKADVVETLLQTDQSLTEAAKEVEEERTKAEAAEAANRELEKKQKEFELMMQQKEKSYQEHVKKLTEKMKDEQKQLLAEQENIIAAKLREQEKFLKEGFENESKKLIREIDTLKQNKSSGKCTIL

- binding [1]: no binding
- binding [2]: no binding
B1: Immunity-related GTPase B10 (IRGB10), mouse, full length, wild type (protein, UniProt Q0GUM3 1-417)
chain: MGQSSSKPDAKAHNMASSLTEFFKNFKMESKIISKETIDSIQSCIQEGDIQKVISIINAALTDIEKAPLNIAVTGETGAGKSTFINALRGIGHEESESAESGAVETTKDRKKYTHPKFPNVTIWDLPGVGTTNFKPEEYLKKMKFQEYDFFLIISSARFRDNEAQLAEAIKKMKKKFYFVRTKIDSDLWNEKKAKPSSYNREKILEVIRSDCVKNLQNANAASTRVFLVSSFEVAQFDFPSLESTLLEELPAHKRHIFVQCLPTITEPAIDRRRDVLKQTIWLEALKAGASATIPMMSFFNDDIEEFEKILSHYRACFGLDDESLENMAKEWSMSVEELESTIKSPHLLSSEPNESVADKLVKTMEKIFAVTGGFVATGLYFRKSYYMQNYFLDTVTEDAKVLLKKKVFLQDSVDSE
